Test results published in PubChem BioAssay AID624297 (National Center for Advancing Translational Sciences (NCATS), 2012).
The campaign covered roughly 340,000 compounds. About 6,200 (1.8%) were called active. The shares of active, inactive and inconclusive entries below differ from those in the screen. Calls come from the whole dose curve; as a rule, active = well fitted activation curve with a large enough effect; inconclusive = small, poorly fitted or top-dose-only effect; inactive = no such curve, though single readings can be large or run the other way. Potencies beside an inconclusive call are fits to weak or partial responses and may not hold up.

Assay: A quantitative high throughput screen for small molecules that induce DNA re-replication in SW480 colon adenocarcinoma cells. For re-replication activation: % of control where 0% means no effect. Note: nearly all actives have a fitted effect of over 55% in size.
Conditions: Hoechst DNA content imaging, 48 h; re-replication activation: at 46.1 µM (top of the series) unless noted
Method in brief: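 Compounds, transferred as 23 nL by pin tool, were incubated with cells for 48 hr; DNA content per nucleus was then quantified by Hoechst staining and fluorescence plate imaging.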
Potency is the fitted concentration of half-maximal effect.

| SMILES | Potency | re-replication activation |
| --- | --- | --- |
| O=C(NCc1ccccc1F)C1CCCN1C(=O)Nc1ccc(F)cc1 (stereo not drawn) | inconclusive: 0.92 µM [activator, partial curve, poor fit] | – |
| CSc1ncccc1C(=O)OCC(=O)c1ccc2c(c1)NC(=O)CO2 | inconclusive: 29.1 µM [activator, partial curve, poor fit] | – |
| CCC(CO)Nc1nc2ccc(Cl)cc2c2ccccc12 (stereo not drawn) | inconclusive: 29.1 µM [activator, single point] | – |
| O=C(c1cnn2c(C(F)(F)F)cc(-c3ccc(Br)cc3)nc12)N1CCOCC1 | – | inactive: 1.49% |
| CCC[C@@H](CN1CCC[C@H]1CN1C(N)=NC[C@@H]1Cc1ccccc1)N1C[C@@H](Cc2ccccc2)N(CCc2ccc(Cl)c(Cl)c2)C1=N | – | inactive: 0.782% |
| C/C(=C\c1ccccc1)CN1CCN(Cc2ccc(C)o2)C(CCO)C1 (stereo not drawn) | – | inactive: -3.89% |
| COc1ccc(CNCCCn2cnc3c(OCc4ccccc4)ncnc32)cc1 | – | inactive: -0.249% |
| COC(=O)c1ccc(NC(=O)c2cccc(C)c2)cc1 | – | inactive: 2.54% |
| COc1cccc(CN(C)C(=O)CCNC(=O)c2ccco2)c1 | – | inactive: -1.63% |
| CCOc1ccc(Oc2c(/C=N/NC(=O)COc3ccccc3OC)c(C)nn2-c2ccccc2)cc1 | inconclusive: 16.4 µM [activator, single point] | – |
| CCOC(=O)N1CCC(N(CCN(C)C)C(=S)Nc2ccccc2OCC)CC1 | – | inactive: 2.48% |
| CCCC(=O)Nc1nc2ccc(OC)cc2s1 | – | inactive: -3.27% |
| COc1ccccc1C(=O)Nc1cccc(NC(C)=O)c1 | – | inactive: -4.49% |
| CC(=O)c1ccc(NC(=O)CSC(C)C)cc1 | inconclusive: 0.731 µM [activator, full curve, poor fit] | – |
| O=C(O)c1cccnc1SCc1cn2cc(Br)ccc2n1 | inconclusive: 32.6 µM [activator, partial curve, poor fit] | – |
| COc1ccccc1OCCC(=O)OCC(=O)Nc1cc(S(=O)(=O)N(C)C)ccc1Cl | inconclusive: 29.1 µM [activator, single point] | – |
| Fc1cc2[nH]c(=S)[nH]c2cc1Cl | – | inactive: 5.56% |
| COC(=O)c1cc(COC(=O)CNC(=O)c2ccc(Br)cc2)oc1C | – | inactive: -13.2% |
| O=C(O)c1cccc(-n2sc3ccccc3c2=O)c1 | inconclusive: 23.1 µM [activator, single point] | – |
| O=C(NCCc1ccccc1)c1coc(=O)c(Br)c1 | active: 10.3 µM | – |
| O=C(CC1(O)C(=O)Nc2cc(Cl)cc(Cl)c21)c1ccccc1O (stereo not drawn) | inconclusive: 16.4 µM [activator, single point] | – |
| O=S(=O)(c1ccccc1)c1ncc(C(F)(F)F)cc1O | – | inactive: -18.3% |
| C/C(=N\NC(=O)c1cc2ccccc2cc1O)c1ccc(C)o1 | inconclusive: 18.4 µM [activator, partial curve, poor fit] | – |

2 compounds picked at random from those above, as already listed:

| SMILES | Potency | re-replication activation |
| --- | --- | --- |
| C/C(=N\NC(=O)c1cc2ccccc2cc1O)c1ccc(C)o1 | inconclusive: 18.4 µM [activator, partial curve, poor fit] | – |
| O=S(=O)(c1ccccc1)c1ncc(C(F)(F)F)cc1O | – | inactive: -18.3% |
